Results deposited as PubChem BioAssay AID720505 (Drosophila RNAi Screening Center, 2013).
The deposit covers about 20,000 reagents; shown is an unselected part of those with a known target gene and a result. Of all reagents, about 2,100 (10%) were called active. 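Raw plate signals without normalisation; calls rest on control-based scores that were not deposited; replicate 2 separates called from uncalled poorly.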 Names joined by + are all predicted targets of the reagent. The record does not give: the amount of reagent, the time to read-out.

- Screen: 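Fly regulators or components of the CRAC channel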 (primary screen)
- Cells: Drosophila S2R+ cells
- Reagents: long dsRNA against Drosophila genes
- Treatment: thapsigargin (2 µM) in calcium-free buffer to empty internal stores, then 2 mM calcium added back
- Read-out: 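Stores emptied by 2 µM thapsigargin without calcium, then 2 mM calcium re-added; fluo-4 fluorescence followed by FLIPR in 384-well plates, per-well averaged endpoint, raw; two screen passes, some wells retested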
- Direction: calcium signal and retest calcium signal: higher = more calcium entry after store depletion
- Call rule: 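Knock-downs counted as hits when calcium entry dropped relative to STIM1 positive and Rho1 negative controls present on each plate; roughly 1500 genes called, with reductions of differing size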
- Meaning of the calls: active = called as lowering calcium entry; inactive = not called

Target gene | DRSC id | calcium signal, replicate 1 | calcium signal, replicate 2 | retest calcium signal, replicate 1 | retest calcium signal, replicate 2 | Call
BicC | DRSC02005 | 122 | 137 | – | – | inactive
RacGAP84C | DRSC12630 | 110 | 113 | – | – | inactive
CG5493 + CG5327 | DRSC06938 | 188 | 136 | – | – | inactive
Npc2b | DRSC15464 | 163 | 196 | – | – | inactive
CG7218 | DRSC16216 | 171 | 403 | – | – | inactive
POLDIP2 | DRSC12194 | 98.7 | 99.9 | – | – | inactive
Fcp3C | DRSC18665 | 110 | 154 | – | – | inactive
CG11000 | DRSC12158 | 88.8 | 182 | – | – | inactive
Ca-beta | DRSC02406 | 212 | 166 | – | – | inactive
Ca-beta | DRSC02407 | 202 | 165 | – | – | inactive
Ca-beta | DRSC03285 | 171 | 198 | 132 | 125 | inactive
Ca-beta | DRSC21432 | 161 | 102 | – | – | inactive
CG10165 | DRSC02017 | 86.4 | 164 | – | – | inactive
Elba1 | DRSC00276 | 115 | 109 | – | – | inactive

Entries above whose gene name starts with C or c:
Target gene | DRSC id | calcium signal, replicate 1 | calcium signal, replicate 2 | retest calcium signal, replicate 1 | retest calcium signal, replicate 2 | Call
CG5493 + CG5327 | DRSC06938 | 188 | 136 | – | – | inactive
CG7218 | DRSC16216 | 171 | 403 | – | – | inactive
CG11000 | DRSC12158 | 88.8 | 182 | – | – | inactive
Ca-beta | DRSC02406 | 212 | 166 | – | – | inactive
Ca-beta | DRSC02407 | 202 | 165 | – | – | inactive
Ca-beta | DRSC03285 | 171 | 198 | 132 | 125 | inactive
Ca-beta | DRSC21432 | 161 | 102 | – | – | inactive
CG10165 | DRSC02017 | 86.4 | 164 | – | – | inactive

The list goes on.
Target gene | DRSC id | calcium signal, replicate 1 | calcium signal, replicate 2 | retest calcium signal, replicate 1 | retest calcium signal, replicate 2 | Call
CG10657 | DRSC09768 | 85.7 | 126 | 168 | 172 | inactive
CG3502 | DRSC04381 | 149 | 86.4 | – | – | inactive
Spx | DRSC18720 | 57.1 | 145 | – | – | active
ldbr | DRSC10933 | 91 | 112 | – | – | inactive
CG18547 | DRSC15345 | 68.2 | 191 | – | – | active
geko | DRSC10044 | 89.5 | 117 | – | – | inactive
geko | DRSC10045 | 84.4 | 92.2 | – | – | active
CG13102 + Rcd-1r | DRSC03266 | 150 | 127 | – | – | inactive
Octalpha2R | DRSC13319 | – | – | – | – | inactive
Octalpha2R | DRSC15314 | 71.1 | 135 | – | – | active
exex | DRSC10972 | 91.1 | 77.8 | – | – | inactive
d4 | DRSC04881 | 144 | 98.6 | – | – | inactive
d4 | DRSC22674 | 89 | 115 | – | – | inactive
Cirl | DRSC07227 | 134 | 165 | – | – | inactive
Cirl | DRSC21942 | 109 | 257 | – | – | inactive
Cirl | DRSC23235 | 102 | 139 | – | – | inactive
CG5167 | DRSC15728 | 195 | 122 | – | – | inactive
Osi2 | DRSC12174 | 116 | 124 | – | – | inactive
CG13196 | DRSC06321 | 136 | 158 | – | – | inactive
CG13643 | DRSC14641 | 134 | 124 | – | – | inactive
CG13643 | DRSC14642 | 122 | 136 | – | – | inactive
